This passage reports binding results from paper PMC3292575.

The assay addresses WT HERG 1a cmyc tagged subunit (human) (UniProt Q12809). The assay can be described thus: co-IP; anti-cmyc (9E10) antibody and protein G PLUS-agarose from cleared lysates of transiently co-transfected HEK293 cells, 48 h post transfection; solubilization buffer with 150 mM NaCl, 25 mM Tris-HCl pH 7.4, 0.5% TX100, 4°C; blot probed with anti-C terminal HERG antibody.

These are yes or no findings as the source states them, for the method shown. Binding seen in cells or lysates may run through a third protein. Some entries that bind do so weakly or less than the wild type.

As for “WT HERG 1b untagged (from UniProt Q12809-2 1-819)”, the binding result is “binds”.
